According to article PMC10462637:
These are yes or no findings as the source states them, for the method shown. In cells and extracts the contact can be indirect. Some binding calls cover weakened binding; strength is not graded here.

Sequences of proteins named here, by UniProt entry; tags and fusion partners are left off.
UniProt Q68E01: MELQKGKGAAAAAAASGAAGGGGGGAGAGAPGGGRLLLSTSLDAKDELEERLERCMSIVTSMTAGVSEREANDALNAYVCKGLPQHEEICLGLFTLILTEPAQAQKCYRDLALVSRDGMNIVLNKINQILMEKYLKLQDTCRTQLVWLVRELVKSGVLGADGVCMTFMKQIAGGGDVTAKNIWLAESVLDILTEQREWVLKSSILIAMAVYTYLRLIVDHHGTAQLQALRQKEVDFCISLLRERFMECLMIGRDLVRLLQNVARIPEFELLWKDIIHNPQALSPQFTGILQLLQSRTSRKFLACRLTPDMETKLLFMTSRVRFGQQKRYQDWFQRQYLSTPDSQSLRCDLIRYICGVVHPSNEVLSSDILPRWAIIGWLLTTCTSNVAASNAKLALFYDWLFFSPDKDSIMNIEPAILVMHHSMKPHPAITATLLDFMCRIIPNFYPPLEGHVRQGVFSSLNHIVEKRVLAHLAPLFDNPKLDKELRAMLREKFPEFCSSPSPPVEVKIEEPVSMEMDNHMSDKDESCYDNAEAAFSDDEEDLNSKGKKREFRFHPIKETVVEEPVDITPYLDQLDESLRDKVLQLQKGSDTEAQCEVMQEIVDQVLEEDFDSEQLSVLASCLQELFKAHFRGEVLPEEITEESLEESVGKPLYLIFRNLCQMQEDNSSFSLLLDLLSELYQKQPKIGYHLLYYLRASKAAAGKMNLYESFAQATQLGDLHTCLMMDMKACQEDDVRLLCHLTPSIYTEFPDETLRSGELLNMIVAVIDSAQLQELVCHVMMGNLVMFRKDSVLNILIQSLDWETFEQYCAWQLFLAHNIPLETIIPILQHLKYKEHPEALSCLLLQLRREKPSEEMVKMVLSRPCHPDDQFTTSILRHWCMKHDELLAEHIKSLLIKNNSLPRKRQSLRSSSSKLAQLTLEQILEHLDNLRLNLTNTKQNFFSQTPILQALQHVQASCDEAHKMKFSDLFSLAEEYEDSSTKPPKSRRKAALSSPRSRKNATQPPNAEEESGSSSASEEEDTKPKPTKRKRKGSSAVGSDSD

Target: SFB-SOSSA (UniProt Q68E01)
Assay: co-IP; 293T cells co-transfected for 24 h, lysed and sonicated in NETN buffer (0.5% NP-40, 20 mM Tris-HCl pH 8.0, 0.1 mM NaCl, 1 mM EDTA, protease inhibitor); supernatant incubated with S protein beads for 4 h, washed with NETN; Western blotting

binding | Binder
binds | SOSSB2-N (domain or fragment, UniProt Q96AH0 1-125) MNRVNDPLIFIRDIKPGLKNLNVVFIVLEIGRVTKTKDGHEVRSCKVADKTGSITISVWDEIGGLIQPGDIIRLTRGYASMWKGCLTLYTGRGGELQKIGEFCMVYSEVPNFSEPNPDYRGQQNK
no binding | SOSSB2-C (domain or fragment, UniProt Q96AH0 125-204) KGAQSEQKNNSMNSNMGTGTFGPVGNGVHTGPESREHQFSHAGRSNGRGLINPQLQGTASNQTVMTTISNGRDPRRAFKR
